Earlier results in patent US20230052189A1, “TREATMENT OF PRIMARY BILIARY CHOLANGITIS WITH ELAFIBRANOR” (Genfit, priority 2020, published 2023).
At least one compound was matched to its structure with a doubt left.

Tests used:
patients with PBC [1] = conditions: cited from earlier work
patients with PBC [2] = conditions: in vivo; cited from earlier work

| SMILES | UDCA-treated patients with a suboptimal response (patients with PBC [1]; Ali et al. 2015) | patients in whom ALP remains elevated (patients with PBC [1]; patients currently treated with or intolerant to UDCA, Lammers et al. 2014) | effect on ALP (patients with PBC [2]) |
| --- | --- | --- | --- |
| C[C@H](CCC(=O)O)[C@H]1CC[C@H]2[C@@H]3[C@@H](O)C[C@@H]4C[C@H](O)CC[C@]4(C)[C@H]3CC[C@]12C [UDCA, ursodeoxycholic acid] | up to 40% | up to 70% | – |
| CC[C@H]1[C@@H](O)[C@@H]2[C@H](CC[C@]3(C)[C@@H]([C@H](C)CCC(=O)O)CC[C@@H]23)[C@@]2(C)CC[C@@H](O)C[C@@H]12 [OCA, obeticholic acid] | – | – | reduce ALP |
